Measurements taken from PubChem BioAssay AID1259354 (Paczesny and Yang Labs, IUPUI and University of Michigan, 2018).
Where “and” joins values, the source holds several entries; their conditions need not be identical. Identical values can stand only once. The whole screen tested about 78,000 compounds, of which about 1,800 (2.3%) were called active. This list was built around the results that the source calls inconclusive (neither active nor inactive); the mix of calls is not that of the screen. No stated cut-off is given here; in the data, active means inhibition above about 30%; inconclusive means mostly about 10% to 28%; inactive means weaker than that.

Chains of the proteins cited; added tags and fusions are not shown. Lines headed by an entry give the natural chain unless they say otherwise; changes in a name come on top.
UniProt Q01638: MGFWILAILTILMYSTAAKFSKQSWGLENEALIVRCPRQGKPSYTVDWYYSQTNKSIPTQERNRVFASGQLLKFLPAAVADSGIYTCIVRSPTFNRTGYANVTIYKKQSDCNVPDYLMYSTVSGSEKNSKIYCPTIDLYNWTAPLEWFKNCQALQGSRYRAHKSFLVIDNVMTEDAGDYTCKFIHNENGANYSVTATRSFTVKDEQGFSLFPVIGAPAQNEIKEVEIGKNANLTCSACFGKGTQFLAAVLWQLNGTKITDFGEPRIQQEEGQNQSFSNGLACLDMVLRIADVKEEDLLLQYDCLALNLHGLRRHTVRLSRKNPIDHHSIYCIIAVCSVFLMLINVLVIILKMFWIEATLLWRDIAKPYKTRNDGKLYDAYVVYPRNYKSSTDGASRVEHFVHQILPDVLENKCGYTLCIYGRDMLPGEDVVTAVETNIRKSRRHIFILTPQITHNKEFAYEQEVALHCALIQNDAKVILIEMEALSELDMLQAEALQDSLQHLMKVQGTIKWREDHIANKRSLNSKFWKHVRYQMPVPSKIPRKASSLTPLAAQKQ

Target: Interleukin-1 receptor-like 1 (Homo sapiens) (UniProt Q01638)
Assay: blocks human ST2 binding to IL-33, primary screen, biochemical, AlphaLISA (AID 1259354)
Conditions: AlphaLISA ST2-Fc/biotin-IL-33 interaction, 1 h; at 17 µM, stronger effect = higher value

| SMILES | inhibition |
| --- | --- |
| CCOc1ccc(-c2nc(SCC(=O)NCCCc3ccccc3)n3[nH]c(=O)cc3n2)cc1 | inactive |
| COc1ccc(C)cc1S(=O)(=O)n1nnc2cc(Cl)ccc21 | inactive |
| CCOc1cccc2c1OC1(C)CC2NC(=O)N1c1ccc(C)cc1 (stereo unspecified) | inactive |
| COCc1ccc(-c2n[nH]c(Cc3ccccc3)n2)o1 | inconclusive: 26% |
| COc1ccc2oc(=Nc3cccc(C(F)(F)F)c3)c(C(=O)NC(C)=O)cc2c1 | inactive |
| COc1cccc2cc(C(N)=O)c(=Nc3ccccc3C)oc12 | inactive |
| Cc1[nH]c2c(Cl)cccc2c(=O)c1CN1CCCCC1C (stereo unspecified) | inactive |
| Cc1nnc(SCC(=O)NCC2(Cn3cccn3)CC2)s1 | inconclusive: 10% |
| Cc1cc(N(C)CCCn2cccn2)nc(-c2cccnc2)n1 | inconclusive: 15% |
| O=[N+]([O-])c1cccc(/C(=N\O)N2CCOCC2)c1 | inconclusive: 11% |
| CC(=O)N1CC[C@H](c2nc3cc(C)ccc3o2)C1 | inconclusive: 12% |
| CC(=O)N(c1ccc2oc3c(c2c1)CCCC3)S(=O)(=O)c1ccc(C)cc1 | inconclusive: 13% |
| COc1ccc(NC(=O)C(Cl)(Cl)Cl)c([N+](=O)[O-])c1 | active: 34% |
| Cc1cccc(C)c1NC(=O)C1(N(Cc2ccccc2)C(=O)c2ccn[nH]2)CCCCC1 | inconclusive: 20% |
| CCOC(=O)C1(CCc2ccccc2)CCN(C(=O)CCc2c(C)noc2C)CC1 | inactive |
| O=C(Nc1cc(C(F)(F)F)ccc1Cl)c1cnc2n(c1=O)CCS2 | inconclusive: 29% |
| CCc1cc2c(=O)c(-c3ccc(F)cc3)coc2cc1O | inconclusive: 15% |
| COc1cccc(C(C)NC(=O)c2cc(C)on2)c1 (stereo unspecified) | inconclusive: 10% |
| O=C(CSc1c2c(nc3cc(Cl)ccc13)CCCC2)Nc1ccc2c(c1)OCCO2 | inactive |
| CCCOc1ccccc1C1C2=C(CC(C)(C)CC2=O)N(CC(=O)O)C2=C1C(=O)CC(C)(C)C2 | inconclusive: 22% |
| COc1ccc(Cl)cc1NC(=O)NCCc1nc2cccnc2n1Cc1ccc(C)cc1 | inconclusive: 23% |

| SMILES | inhibition |
| --- | --- |
| CC1c2cccn2CCN1C(=O)c1cc(CN2CCC(O)CC2)on1 (stereo unspecified) | inactive |
| N#CC1=C(N)SC(N)=C(C#N)C1c1cccnc1 | inconclusive: 14% |
| COc1cc(OC)cc(-c2cc3nc(C)c(CCC(=O)Nc4nc(C)cs4)c(C)n3n2)c1 | inconclusive: 21% |
| Cn1c(CN2CCCC(CCC(=O)Nc3ccc(C(F)(F)F)cc3)C2)nc2ccccc21 (stereo unspecified) | inconclusive: 20% |
| CN1C(=O)CC[C@H]1c1cccnc1 | inconclusive: 19% |
| Cc1ccccc1-c1nc(CSCC(=O)NC2CC2)c(C)o1 | inactive |
| CCCCOC(=O)C1=C(C)Nc2nnnn2C1c1ccccc1OC (stereo unspecified) | inactive |
| O=C(CC1CCCCC1)Nc1ccccc1[N+](=O)[O-] | inconclusive: 19% |
| COc1ccc2nc(NC(=O)CNC(=O)Cn3ccc4ccccc4c3=O)sc2c1 | inconclusive: 10% |
| CC(C)(O)C#Cc1cccc(C(=O)N2CCc3c(c(C(=O)N4CCCC4)nn3Cc3ccccc3)C2)c1 | inactive |
| O=C(CN1C(=O)CC(c2ccccc2)Sc2ccccc21)NCc1ccco1 (stereo unspecified) | inactive |
| CCc1ccc(C(=O)c2ccccc2C(=O)O)cc1 | inconclusive: 15% |
| COc1ccc(C(=O)N2CCNCC2C(=O)N2CCOCC2)cc1Cl (stereo unspecified) | inactive |
| COc1ccc(C2=NN(C(C)=O)C(c3ccccc3OC)C2)cc1OC (stereo unspecified) | inactive |
| CCSc1nc(CC(=O)NCCN2CCNC2=O)cs1 | inconclusive: 12% |
| CN(C)S(=O)(=O)c1ccc(C(=O)N=c2sc3cc(Cl)ccc3n2C)cc1 | inactive |
| N#Cc1c(N)nc(N2CCCC2)c(C#N)c1-c1ccc(Cl)cc1 | inactive |
| O=C(Nc1nc2c(s1)CCCC2)c1ccc(N2CCOCC2)c([N+](=O)[O-])c1 | inconclusive: 16% |
| CCn1c(=O)[nH]c2cc(Cl)c(Cl)cc21 | inconclusive: 16% |
| Nc1ccc(-c2ccc(F)cc2Cl)cn1 | active: 35% |
| Cc1ccc(S(=O)(=O)N2CCN(c3nc(C)cc(N(C)C)n3)CC2)cc1 | inconclusive: 17% |

| SMILES | inhibition |
| --- | --- |
| COc1ccc(Nc2cc(C)nc(N3CCN(S(=O)(=O)c4ccc5c(c4)Cc4ccccc4-5)CC3)n2)cc1 | inconclusive: 14% |
| CN1CCC(N2CC[C@H](c3nc4ccccc4o3)C2)CC1 | inactive |
| O=C1C=C(c2cccs2)C[C@H](c2ccccc2)[C@H]1n1cnc([N+](=O)[O-])n1 | inconclusive: 10% |
| O=C(NCc1nnc(-c2ccccc2)o1)c1cnn2c1CCCC2 | inactive |
| O=C(c1cccc(-n2cccn2)c1)N1CCCC2(C1)C(=O)Nc1ccccc12 (stereo unspecified) | inconclusive: 12% |
| c1cncc(-c2nnc([C@H]3CCN(CC4CC4)C3)o2)c1 | inactive |
| CCCCN(C)S(=O)(=O)c1ccc(C(=O)Nc2nnc(CC)o2)cc1 | inactive |
| Cc1nccn1-c1ccc(NC(=O)C2CCCN(Cc3ccc4nonc4c3)C2)cc1 (stereo unspecified) | inconclusive: 16% |
| Cc1cccc(-c2cn[nH]c2C2CCN(C(=O)c3cnn4ccccc34)CC2)c1 | inconclusive: 14% |
| CCCn1c(=N)c(C#N)cc2c(=O)n3cccc(C)c3nc21 | inconclusive: 14% |
| CCOC(=O)c1c(C)n(C)c2cc(Br)c(C)cc12 | inconclusive: 18% |
| O=C(Nc1ccc(Oc2ccccc2)cc1)N[C@H]1CO[C@H]2[C@@H]1OC[C@@H]2Nc1nccc(-c2cccs2)n1 | inconclusive: 13% |
| CCOc1ccc(NC(=O)c2cc3cc4ccc(Cl)cc4nc3o2)cc1 | inconclusive: 26% and inconclusive: 25% |
| CCC(=O)Nc1ccc(-c2ccc3c(c2)OCCO3)c(C)n1 | inconclusive: 15% |
| CCO[C@H]1COC[C@@H]1NC(=O)C(=O)c1ccco1 | inconclusive: 13% |
| CC(C)OCCCNC(=O)CN1C(=O)/C(=C\c2ccc(Cl)cc2)Sc2ccccc21 | inconclusive: 20% |
| CCn1c(C2CCCN(Cc3coc(-c4ccccc4)n3)C2)nn(C)c1=O (stereo unspecified) | inconclusive: 10% |
| Cn1nc(CC2CCN(CC3CCOC3)CC2)n(-c2ccccc2)c1=O (stereo unspecified) | inconclusive: 14% |
| Cc1nnsc1CN(C)C(=O)[C@H](N)Cc1c[nH]c2ccccc12 | inactive |
